These are yes or no findings as the source states them, for the method shown. In cells and extracts the contact can be indirect. Here binding means that the protein was enriched with, or labelled near, the bait; the list need not be complete. No binding means not detected with the bait. Sequences can lack the tags named with a protein.
T1: FLAG-BirA*-GEMC1 (human) (UniProt A6NCL1)
T1 sequence: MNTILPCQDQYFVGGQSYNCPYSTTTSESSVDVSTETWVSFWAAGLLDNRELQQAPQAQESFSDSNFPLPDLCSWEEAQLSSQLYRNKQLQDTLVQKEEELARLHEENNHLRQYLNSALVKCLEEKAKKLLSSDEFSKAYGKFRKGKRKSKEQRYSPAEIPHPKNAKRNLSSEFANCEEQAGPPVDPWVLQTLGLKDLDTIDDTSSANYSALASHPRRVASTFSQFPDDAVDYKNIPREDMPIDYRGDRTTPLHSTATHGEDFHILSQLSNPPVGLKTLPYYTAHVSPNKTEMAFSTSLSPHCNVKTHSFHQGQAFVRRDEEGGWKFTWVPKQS

Protein sequences, listed by entry. Tags and fused reporters are not part of them.
UniProt Q12834: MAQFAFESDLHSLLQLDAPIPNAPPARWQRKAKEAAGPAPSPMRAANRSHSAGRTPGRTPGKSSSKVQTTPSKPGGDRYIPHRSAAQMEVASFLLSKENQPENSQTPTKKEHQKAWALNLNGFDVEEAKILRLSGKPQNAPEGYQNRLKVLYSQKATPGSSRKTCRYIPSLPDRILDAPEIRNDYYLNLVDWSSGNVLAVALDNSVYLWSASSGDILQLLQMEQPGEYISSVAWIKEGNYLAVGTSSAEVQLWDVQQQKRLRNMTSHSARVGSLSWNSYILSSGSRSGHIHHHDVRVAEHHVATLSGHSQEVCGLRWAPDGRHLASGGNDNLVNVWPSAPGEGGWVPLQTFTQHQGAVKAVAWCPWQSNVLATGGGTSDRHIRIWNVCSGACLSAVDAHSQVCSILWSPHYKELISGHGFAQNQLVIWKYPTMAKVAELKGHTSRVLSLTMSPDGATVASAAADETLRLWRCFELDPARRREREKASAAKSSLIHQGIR
UniProt Q14186: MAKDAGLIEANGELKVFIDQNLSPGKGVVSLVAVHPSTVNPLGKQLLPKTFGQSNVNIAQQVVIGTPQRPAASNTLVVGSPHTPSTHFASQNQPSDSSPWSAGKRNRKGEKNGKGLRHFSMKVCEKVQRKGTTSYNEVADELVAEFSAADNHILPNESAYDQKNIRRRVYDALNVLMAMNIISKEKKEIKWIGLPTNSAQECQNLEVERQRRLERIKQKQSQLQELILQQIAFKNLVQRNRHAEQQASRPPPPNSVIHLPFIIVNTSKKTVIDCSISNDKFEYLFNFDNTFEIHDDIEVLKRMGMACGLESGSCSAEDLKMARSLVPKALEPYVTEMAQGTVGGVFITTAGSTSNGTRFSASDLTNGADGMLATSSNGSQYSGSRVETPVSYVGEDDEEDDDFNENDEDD
UniProt Q16254: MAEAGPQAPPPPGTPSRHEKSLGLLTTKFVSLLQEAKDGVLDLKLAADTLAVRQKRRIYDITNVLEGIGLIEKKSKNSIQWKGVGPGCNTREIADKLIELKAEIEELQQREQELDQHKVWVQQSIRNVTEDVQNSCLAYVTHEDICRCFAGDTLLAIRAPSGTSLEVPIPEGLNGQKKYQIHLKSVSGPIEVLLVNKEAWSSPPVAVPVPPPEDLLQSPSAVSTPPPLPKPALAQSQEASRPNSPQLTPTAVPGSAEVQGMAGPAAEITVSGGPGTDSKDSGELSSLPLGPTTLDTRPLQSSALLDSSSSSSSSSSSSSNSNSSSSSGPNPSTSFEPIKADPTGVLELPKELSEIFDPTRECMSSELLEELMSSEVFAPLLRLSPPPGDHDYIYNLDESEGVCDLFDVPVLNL
UniProt Q15329: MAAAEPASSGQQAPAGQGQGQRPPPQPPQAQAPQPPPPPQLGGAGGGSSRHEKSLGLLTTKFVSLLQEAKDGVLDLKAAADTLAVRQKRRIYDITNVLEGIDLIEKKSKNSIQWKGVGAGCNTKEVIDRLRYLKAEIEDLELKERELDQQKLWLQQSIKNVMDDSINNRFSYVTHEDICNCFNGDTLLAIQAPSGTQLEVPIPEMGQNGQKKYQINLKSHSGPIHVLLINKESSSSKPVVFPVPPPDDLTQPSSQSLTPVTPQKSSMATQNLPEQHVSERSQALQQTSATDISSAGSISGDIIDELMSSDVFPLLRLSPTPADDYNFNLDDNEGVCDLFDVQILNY
UniProt Q5TKA1: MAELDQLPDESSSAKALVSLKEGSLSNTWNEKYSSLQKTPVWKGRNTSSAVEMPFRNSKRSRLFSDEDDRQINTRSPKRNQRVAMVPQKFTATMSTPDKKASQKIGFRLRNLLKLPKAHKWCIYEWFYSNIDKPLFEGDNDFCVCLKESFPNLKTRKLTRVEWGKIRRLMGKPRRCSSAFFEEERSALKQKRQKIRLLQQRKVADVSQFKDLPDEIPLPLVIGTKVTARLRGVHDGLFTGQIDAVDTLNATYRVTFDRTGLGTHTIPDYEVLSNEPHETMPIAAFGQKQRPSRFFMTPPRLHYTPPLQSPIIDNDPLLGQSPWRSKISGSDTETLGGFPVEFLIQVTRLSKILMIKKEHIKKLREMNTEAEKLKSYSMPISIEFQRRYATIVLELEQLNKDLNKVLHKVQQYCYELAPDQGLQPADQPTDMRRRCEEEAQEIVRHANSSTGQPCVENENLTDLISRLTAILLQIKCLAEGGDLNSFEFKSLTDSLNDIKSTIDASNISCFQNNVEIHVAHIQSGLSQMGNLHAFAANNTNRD
UniProt Q9Y4A5: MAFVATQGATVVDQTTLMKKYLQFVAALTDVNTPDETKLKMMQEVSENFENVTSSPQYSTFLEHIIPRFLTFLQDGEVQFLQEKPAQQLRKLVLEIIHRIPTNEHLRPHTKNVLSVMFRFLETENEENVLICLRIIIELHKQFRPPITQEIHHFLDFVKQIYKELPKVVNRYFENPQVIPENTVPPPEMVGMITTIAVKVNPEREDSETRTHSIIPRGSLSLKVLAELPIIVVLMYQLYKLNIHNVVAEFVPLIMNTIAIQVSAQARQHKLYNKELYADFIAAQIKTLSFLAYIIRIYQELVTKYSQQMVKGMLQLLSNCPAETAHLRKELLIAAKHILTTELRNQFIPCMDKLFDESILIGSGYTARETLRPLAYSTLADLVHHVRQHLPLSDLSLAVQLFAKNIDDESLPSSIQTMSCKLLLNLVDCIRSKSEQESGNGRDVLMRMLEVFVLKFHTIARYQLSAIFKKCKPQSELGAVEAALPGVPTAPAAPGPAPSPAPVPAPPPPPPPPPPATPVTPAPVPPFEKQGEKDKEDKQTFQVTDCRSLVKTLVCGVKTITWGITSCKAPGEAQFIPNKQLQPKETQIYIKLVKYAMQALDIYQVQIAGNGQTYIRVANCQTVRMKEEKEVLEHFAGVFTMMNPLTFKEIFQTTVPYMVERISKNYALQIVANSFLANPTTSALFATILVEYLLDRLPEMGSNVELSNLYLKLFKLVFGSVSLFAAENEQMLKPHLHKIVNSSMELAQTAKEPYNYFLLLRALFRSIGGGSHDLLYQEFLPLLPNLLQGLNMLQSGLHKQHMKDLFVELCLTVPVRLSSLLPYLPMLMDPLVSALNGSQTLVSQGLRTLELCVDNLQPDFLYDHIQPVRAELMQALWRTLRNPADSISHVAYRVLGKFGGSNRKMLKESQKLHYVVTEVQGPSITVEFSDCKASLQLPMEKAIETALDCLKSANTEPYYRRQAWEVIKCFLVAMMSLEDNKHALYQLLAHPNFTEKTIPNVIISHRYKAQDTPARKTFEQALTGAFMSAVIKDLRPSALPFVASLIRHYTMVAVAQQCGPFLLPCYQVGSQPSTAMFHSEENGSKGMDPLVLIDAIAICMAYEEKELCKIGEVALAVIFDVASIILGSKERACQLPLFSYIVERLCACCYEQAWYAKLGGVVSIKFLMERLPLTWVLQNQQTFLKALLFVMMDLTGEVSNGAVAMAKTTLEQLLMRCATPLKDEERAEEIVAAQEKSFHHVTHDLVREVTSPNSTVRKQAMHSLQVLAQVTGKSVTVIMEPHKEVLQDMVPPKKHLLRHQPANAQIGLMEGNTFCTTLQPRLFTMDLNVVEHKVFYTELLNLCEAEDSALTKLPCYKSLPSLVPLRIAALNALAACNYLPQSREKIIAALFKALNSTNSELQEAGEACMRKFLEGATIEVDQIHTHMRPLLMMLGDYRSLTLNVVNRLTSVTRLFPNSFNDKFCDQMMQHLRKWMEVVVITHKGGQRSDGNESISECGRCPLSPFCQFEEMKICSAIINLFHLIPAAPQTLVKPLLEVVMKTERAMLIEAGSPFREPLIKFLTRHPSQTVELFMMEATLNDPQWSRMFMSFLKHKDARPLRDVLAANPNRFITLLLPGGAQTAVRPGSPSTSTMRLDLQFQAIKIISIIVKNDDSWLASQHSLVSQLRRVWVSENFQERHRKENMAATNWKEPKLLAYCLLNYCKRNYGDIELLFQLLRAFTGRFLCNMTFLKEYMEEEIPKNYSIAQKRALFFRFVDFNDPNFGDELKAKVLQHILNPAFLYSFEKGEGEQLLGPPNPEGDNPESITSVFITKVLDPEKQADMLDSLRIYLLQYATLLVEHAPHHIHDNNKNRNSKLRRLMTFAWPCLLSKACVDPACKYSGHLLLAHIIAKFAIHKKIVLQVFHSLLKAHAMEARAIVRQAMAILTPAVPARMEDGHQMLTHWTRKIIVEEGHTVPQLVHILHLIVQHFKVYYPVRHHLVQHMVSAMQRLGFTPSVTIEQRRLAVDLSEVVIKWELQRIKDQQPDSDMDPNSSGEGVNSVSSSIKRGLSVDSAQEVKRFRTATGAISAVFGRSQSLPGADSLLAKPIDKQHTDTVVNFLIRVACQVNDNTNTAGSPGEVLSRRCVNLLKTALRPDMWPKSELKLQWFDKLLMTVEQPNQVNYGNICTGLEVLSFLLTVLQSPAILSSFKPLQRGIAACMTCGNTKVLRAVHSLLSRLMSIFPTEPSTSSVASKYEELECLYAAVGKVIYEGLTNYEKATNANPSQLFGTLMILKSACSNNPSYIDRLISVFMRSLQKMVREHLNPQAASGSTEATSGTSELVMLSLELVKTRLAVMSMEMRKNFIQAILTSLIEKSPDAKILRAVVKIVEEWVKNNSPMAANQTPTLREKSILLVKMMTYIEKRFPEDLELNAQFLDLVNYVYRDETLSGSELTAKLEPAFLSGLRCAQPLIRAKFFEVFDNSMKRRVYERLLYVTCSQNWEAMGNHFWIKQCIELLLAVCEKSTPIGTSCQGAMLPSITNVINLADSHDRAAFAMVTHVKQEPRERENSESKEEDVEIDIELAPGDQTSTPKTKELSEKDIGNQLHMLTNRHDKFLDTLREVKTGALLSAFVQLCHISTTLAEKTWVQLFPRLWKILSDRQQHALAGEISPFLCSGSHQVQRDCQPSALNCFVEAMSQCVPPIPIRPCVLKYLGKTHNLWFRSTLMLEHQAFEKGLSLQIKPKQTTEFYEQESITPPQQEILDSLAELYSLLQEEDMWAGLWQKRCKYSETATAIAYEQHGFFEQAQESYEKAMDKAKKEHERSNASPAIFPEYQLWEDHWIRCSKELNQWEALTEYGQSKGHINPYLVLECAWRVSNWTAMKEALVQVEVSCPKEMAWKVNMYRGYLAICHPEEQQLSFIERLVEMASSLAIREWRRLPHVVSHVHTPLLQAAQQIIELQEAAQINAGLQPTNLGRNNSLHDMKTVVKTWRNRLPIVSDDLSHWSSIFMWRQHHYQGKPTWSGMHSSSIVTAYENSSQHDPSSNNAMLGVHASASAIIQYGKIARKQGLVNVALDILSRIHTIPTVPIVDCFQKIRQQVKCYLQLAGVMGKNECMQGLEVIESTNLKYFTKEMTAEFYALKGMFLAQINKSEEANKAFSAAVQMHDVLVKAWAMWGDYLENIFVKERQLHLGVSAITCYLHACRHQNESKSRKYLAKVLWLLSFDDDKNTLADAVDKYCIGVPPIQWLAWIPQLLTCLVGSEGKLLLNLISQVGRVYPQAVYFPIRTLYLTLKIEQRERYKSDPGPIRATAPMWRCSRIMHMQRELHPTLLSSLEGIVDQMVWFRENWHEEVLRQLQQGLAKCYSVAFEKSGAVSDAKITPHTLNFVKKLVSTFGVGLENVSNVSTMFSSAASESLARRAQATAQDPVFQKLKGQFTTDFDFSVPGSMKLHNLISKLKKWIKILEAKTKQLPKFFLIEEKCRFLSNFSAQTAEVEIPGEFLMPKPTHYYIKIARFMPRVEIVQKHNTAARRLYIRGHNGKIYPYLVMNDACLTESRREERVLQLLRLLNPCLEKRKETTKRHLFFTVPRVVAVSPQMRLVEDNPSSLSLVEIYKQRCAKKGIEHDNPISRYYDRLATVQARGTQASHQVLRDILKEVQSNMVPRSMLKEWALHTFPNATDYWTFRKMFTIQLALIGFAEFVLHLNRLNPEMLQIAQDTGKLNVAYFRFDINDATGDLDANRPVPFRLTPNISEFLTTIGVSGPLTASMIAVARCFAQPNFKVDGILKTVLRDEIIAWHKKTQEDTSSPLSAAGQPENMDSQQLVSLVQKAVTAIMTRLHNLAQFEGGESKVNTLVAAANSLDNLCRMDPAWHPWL
UniProt Q92769: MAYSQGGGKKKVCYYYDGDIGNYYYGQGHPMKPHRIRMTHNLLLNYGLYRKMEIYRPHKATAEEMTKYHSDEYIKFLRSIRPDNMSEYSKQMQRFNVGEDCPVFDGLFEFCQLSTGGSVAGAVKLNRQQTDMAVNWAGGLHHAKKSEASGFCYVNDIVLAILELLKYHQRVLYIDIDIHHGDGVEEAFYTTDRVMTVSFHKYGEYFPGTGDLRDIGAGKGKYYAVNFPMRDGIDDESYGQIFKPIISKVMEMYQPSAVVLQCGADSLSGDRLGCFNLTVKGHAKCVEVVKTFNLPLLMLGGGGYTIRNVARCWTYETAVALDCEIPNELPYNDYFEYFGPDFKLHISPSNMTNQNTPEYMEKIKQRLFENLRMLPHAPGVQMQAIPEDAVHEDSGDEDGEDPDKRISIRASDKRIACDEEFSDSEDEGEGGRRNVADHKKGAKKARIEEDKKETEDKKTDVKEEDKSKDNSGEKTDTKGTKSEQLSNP

T2: FLAG-BirA*-MCIDAS (human) (UniProt D6RGH6)
T2 sequence: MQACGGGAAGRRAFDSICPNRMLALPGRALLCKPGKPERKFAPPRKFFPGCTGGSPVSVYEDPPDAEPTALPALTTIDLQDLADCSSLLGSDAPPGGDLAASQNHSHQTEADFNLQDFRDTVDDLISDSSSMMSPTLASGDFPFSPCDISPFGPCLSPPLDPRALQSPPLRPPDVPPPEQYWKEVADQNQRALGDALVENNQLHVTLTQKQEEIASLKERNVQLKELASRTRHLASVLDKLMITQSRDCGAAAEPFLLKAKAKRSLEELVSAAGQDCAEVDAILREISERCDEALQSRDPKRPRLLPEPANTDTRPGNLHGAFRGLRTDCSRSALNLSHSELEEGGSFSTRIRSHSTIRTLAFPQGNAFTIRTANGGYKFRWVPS

B1: Geminin (protein, UniProt O75496 1-209)
chain: MNPSMKQKQEEIKENIKNSSVPRRTLKMIQPSASGSLVGRENELSAGLSKRKHRNDHLTSTTSSPGVIVPESSENKNLGGVTQESFDLMIKENPSSQYWKEVAEKRRKALYEALKENEKLHKEIEQKDNEIARLKKENKELAEVAEHVQYMAELIERLNGEPLDNFESLDNQEFDSEEETVEDSLVEDSEIGTCAEGTVSSSTDAKPCI
B2: DP-2 (TFDP2) (protein, UniProt Q14188 1-446)
chain: MTAKNVGLTSTNAEVRGFIDQNLSPTKGNISFVAFPVSNTNSPTKILPKTLGPINVNVGPQMIISTPQRLTSSGSVLIGSPYTPAPAMVTQTHIAEATGWVPGDRKRARKFIDSDFSESKRSKKGDKNGKGLRHFSMKVCEKVQRKGTTSYNEVADELVSEFTNSNNHLAADSAYDQKNIRRRVYDALNVLMAMNIISKEKKEIKWIGLPTNSAQECQNLEIEKQRRIERIKQKRAQLQELLLQQIAFKNLVQRNRQNEQQNQGPPALNSTIQLPFIIINTSRKTVIDCSISSDKFEYLFNFDNTFEIHDDIEVLKRMGMSFGLESGKCSLEDLKLAKSLVPKALEGYITDISTGPSWLNQGLLLNSTQSVSNLDLTTGATLPQSSVNQGLCLDAEVALATGQFLAPNSHQSSSAASHCSESRGETPCSFNDEDEEDDEEDSSSPE
B3: CDT1 (protein, UniProt Q9H211 1-546)
chain: MEQRRVTDFFARRRPGPPRIAPPKLACRTPSPARPALRAPASATSGSRKRARPPAAPGRDQARPPARRRLRLSVDEVSSPSTPEAPDIPACPSPGQKIKKSTPAAGQPPHLTSAQDQDTISELASCLQRARELGARVRALKASAQDAGESCTPEAEGRPEEPCGEKAPAYQRFHALAQPGLPGLVLPYKYQVLAEMFRSMDTIVGMLHNRSETPTFAKVQRGVQDMMRRRFEECNVGQIKTVYPASYRFRQERSVPTFKDGTRRSDYQLTIEPLLEQEADGAAPQLTASRLLQRRQIFSQKLVEHVKEHHKAFLASLSPAMVVPEDQLTRWHPRFNVDEVPDIEPAALPQPPATEKLTTAQEVLARARNLISPRMEKALSQLALRSAAPSSPGSPRPALPATPPATPPAASPSALKGVSQDLLERIRAKEAQKQLAQMTRCPEQEQRLQRLERLPELARVLRSVFVSERKPALSMEVACARMVGSCCTIMSPGEMEKHLLLLSELLPDWLSLHRIRTDTYVKLDKAADLAHITARLAHQTRAEEGL
B4: AIP (protein, UniProt O00170 1-330)
chain: MADIIARLREDGIQKRVIQEGRGELPDFQDGTKATFHYRTLHSDDEGTVLDDSRARGKPMELIIGKKFKLPVWETIVCTMREGEIAQFLCDIKHVVLYPLVAKSLRNIAVGKDPLEGQRHCCGVAQMREHSSLGHADLDALQQNPQPLIFHMEMLKVESPGTYQQDPWAMTDEEKAKAVPLIHQEGNRLYREGHVKEAAAKYYDAIACLKNLQMKEQPGSPEWIQLDQQITPLLLNYCQCKLVVEEYYEVLDHCSSILNKYDDNVKAYFKRGKAHAAVWNAQEAQADFAKVLELDPALAPVVSRELRALEARIRQKDEEDKARFRGIFSH
B5: ELMSAN1/MIDEAS (protein, UniProt Q6PJG2 1-1045)
chain: MNLQAQPKAQNKRKRCLFGGQEPAPKEQPPPLQPPQQSIRVKEEQYLGHEGPGGAVSTSQPVELPPPSSLALLNSVVYGPERTSAAMLSQQVASVKWPNSVMAPGRGPERGGGGGVSDSSWQQQPGQPPPHSTWNCHSLSLYSATKGSPHPGVGVPTYYNHPEALKREKAGGPQLDRYVRPMMPQKVQLEVGRPQAPLNSFHAAKKPPNQSLPLQPFQLAFGHQVNRQVFRQGPPPPNPVAAFPPQKQQQQQQPQQQQQQQQAALPQMPLFENFYSMPQQPSQQPQDFGLQPAGPLGQSHLAHHSMAPYPFPPNPDMNPELRKALLQDSAPQPALPQVQIPFPRRSRRLSKEGILPPSALDGAGTQPGQEATGNLFLHHWPLQQPPPGSLGQPHPEALGFPLELRESQLLPDGERLAPNGREREAPAMGSEEGMRAVSTGDCGQVLRGGVIQSTRRRRRASQEANLLTLAQKAVELASLQNAKDGSGSEEKRKSVLASTTKCGVEFSEPSLATKRAREDSGMVPLIIPVSVPVRTVDPTEAAQAGGLDEDGKGPEQNPAEHKPSVIVTRRRSTRIPGTDAQAQAEDMNVKLEGEPSVRKPKQRPRPEPLIIPTKAGTFIAPPVYSNITPYQSHLRSPVRLADHPSERSFELPPYTPPPILSPVREGSGLYFNAIISTSTIPAPPPITPKSAHRTLLRTNSAEVTPPVLSVMGEATPVSIEPRINVGSRFQAEIPLMRDRALAAADPHKADLVWQPWEDLESSREKQRQVEDLLTAACSSIFPGAGTNQELALHCLHESRGDILETLNKLLLKKPLRPHNHPLATYHYTGSDQWKMAERKLFNKGIAIYKKDFFLVQKLIQTKTVAQCVEFYYTYKKQVKIGRNGTLTFGDVDTSDEKSAQEEVEVDIKTSQKFPRVPLPRRESPSEERLEPKREVKEPRKEGEEEVPEIQEKEEQEEGRERSRRAAAVKATQTLQANESASDILILRSHESNAPGSAGGQASEKPREGTGKSRRALPFSEKKKKTETFSKTQNQENTFPCKKCGR
B6: DNTTIP1 (protein, UniProt Q9H147 1-329)
chain: MGATGDAEQPRGPSGAERGGLELGDAGAAGQLVLTNPWNIMIKHRQVQRRGRRSQMTTSFTDPAISMDLLRAVLQPSINEEIQTVFNKYMKFFQKAALNVRDNVGEEVDAEQLIQEACRSCLEQAKLLFSDGEKVIPRLTHELPGIKRGRQAEEECAHRGSPLPKKRKGRPPGHILSSDRAAAGMVWKPKSCEPIRREGPKWDPARLNESTTFVLGSRANKALGMGGTRGRIYIKHPHLFKYAADPQDKHWLAEQHHMRATGGKMAYLLIEEDIRDLAASDDYRGCLDLKLEELKSFVLPSWMVEKMRKYMETLRTENEHRAVEAPPQT

Tests used:
FLAG-BirA*-GEMC1 (human) = target: T1, FLAG-BirA*-GEMC1 (human); assay: proximity labelling; BioID-MS: FLAG-BirA* fusions transiently expressed in AD-293 cells with 50 uM biotin; lysis in modified RIPA, benzonase; biotinylated proteins isolated on streptavidin-sepharose, trypsin, mass spectrometry, SAINTexpress; FLAG-BirA* alone as control
[1] = target: T2, FLAG-BirA*-MCIDAS (human); assay: as above

Row | Molecule | binding (FLAG-BirA*-GEMC1 (human)) | binding [1]
1 | ARNT (from UniProt P27540 1-789) | binds | 
2 | Aryl hydrocarbon receptor (AHR) (from UniProt P35869 11-848) | binds | 
3 | BICRA (from UniProt Q9NZM4 1-1560) |  | binds
4 | CBP (from UniProt Q92793 1-2442) | binds | binds
5 | CDC20 (from UniProt Q12834 1-499) |  | binds
6 | Cyclin A (CCNA2) (from UniProt P20248 1-432) | binds | 
7 | DP1 (TFDP1) (from UniProt Q14186 1-410) | binds | binds
8 | E2F3 (from UniProt O00716 1-465) | binds | binds
9 | E2F4 (from UniProt Q16254 1-413) | binds | binds
10 | E2F5 (from UniProt Q15329 1-346) | binds | binds
11 | LIN9 (from UniProt Q5TKA1 1-542) | binds | binds
12 | LIN52 (from UniProt Q52LA3 1-112) | binds | binds
13 | LIN54 (from UniProt Q6MZP7 1-749) | binds | binds
14 | MYB-B (MYBL2) (from UniProt P10244 1-700) | binds | binds
15 | PLK1 (from UniProt P53350 1-603) |  | binds
16 | SMARCA4 (BRG1) (from UniProt P51532 1-1647) | binds | binds
17 | TRRAP (from UniProt Q9Y4A5 1-3859) | binds | binds
18 | histone deacetylase 1 (from UniProt Q13547 1-482) | no binding | no binding
19 | histone deacetylase 2 (from UniProt Q92769 1-488) | no binding | no binding
20 | p300 (from UniProt Q09472 1-2414) | binds | binds
21 | B1 | binds | 
22 | B2 | binds | binds
23 | B3 |  | binds
24 | B4 | binds | 
25 | B5 | binds | 
26 | B6 | binds | 

— paper PMC10023806
